Experimental data published in article PMC8192788.
No constants are given. Whether binding was seen depends on the method and setting. For part of these data: Binding seen in cells or lysates may run through a third protein. Some binding calls cover weakened binding; strength is not graded here.

Amino acid sequences for entries named in this document (tags omitted). A change or cut given only in a name is not applied to a line headed by its entry.
UniProt P61026: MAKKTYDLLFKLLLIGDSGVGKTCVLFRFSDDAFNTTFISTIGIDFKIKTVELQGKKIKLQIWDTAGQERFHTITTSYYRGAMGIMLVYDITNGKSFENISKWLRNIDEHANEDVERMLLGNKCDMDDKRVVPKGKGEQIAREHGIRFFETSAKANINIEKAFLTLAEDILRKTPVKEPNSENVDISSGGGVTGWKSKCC
UniProt P05556: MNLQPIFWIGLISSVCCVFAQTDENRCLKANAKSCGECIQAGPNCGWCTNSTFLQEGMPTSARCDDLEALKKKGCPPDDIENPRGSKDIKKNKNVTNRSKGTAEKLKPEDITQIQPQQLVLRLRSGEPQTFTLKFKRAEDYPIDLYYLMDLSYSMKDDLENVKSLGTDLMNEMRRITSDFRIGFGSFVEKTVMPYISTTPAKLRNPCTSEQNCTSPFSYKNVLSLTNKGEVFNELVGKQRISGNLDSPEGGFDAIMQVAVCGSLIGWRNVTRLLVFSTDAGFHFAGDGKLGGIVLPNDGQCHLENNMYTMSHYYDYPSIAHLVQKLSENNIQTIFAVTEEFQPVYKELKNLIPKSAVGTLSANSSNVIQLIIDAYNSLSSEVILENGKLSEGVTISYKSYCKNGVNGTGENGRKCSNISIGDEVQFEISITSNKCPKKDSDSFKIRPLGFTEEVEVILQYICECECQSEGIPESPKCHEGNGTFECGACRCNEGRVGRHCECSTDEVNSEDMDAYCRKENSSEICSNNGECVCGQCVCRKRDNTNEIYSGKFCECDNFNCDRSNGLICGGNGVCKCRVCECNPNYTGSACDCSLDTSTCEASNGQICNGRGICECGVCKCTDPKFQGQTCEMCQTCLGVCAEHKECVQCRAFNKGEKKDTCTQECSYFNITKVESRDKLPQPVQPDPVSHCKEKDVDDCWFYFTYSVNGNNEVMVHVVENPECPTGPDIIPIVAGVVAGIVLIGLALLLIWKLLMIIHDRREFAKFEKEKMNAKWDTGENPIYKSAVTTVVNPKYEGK

What was measured:
[1] = biological target: RAB10 (human (endogenous in Ge518 and Ge269)) (UniProt P61026); test: co-IP; immunoprecipitation of RAB10 from Ge518 shCtrl vs. shGal-3 lysate, immunoblot for Gal-3; also Ge518 treated with MCP (significant decrease of co-precipitated Gal-3)
[2] = biological target: purified human Gal-3 (Biolegend) (human) (UniProt P17931); test: cell-free binding assay (coated plate, antibody detection by fluorescence); as a4, with MCP (modified citrus pectin, Gal-3 inhibitor) combined with RAB10 and added to Gal-3-coated wells; MCP concentration not stated for this assay; both purified
[3] = biological target: Galectin-3 (human (endogenous in Ge518 and Ge269)) (UniProt P17931); test: co-IP; β1 integrin and Gal-3 co-immunoprecipitation from GSCs (Supplementary Fig. 7A); which protein was precipitated is not given

Galectin-3 (from UniProt P17931 1-250)
binding [1]: binds

recombinant human RAB10 (Prospec PRO-1361) (from UniProt P61026 1-200)
binding [2]: no binding (condition: with MCP)

β1 integrin (from UniProt P05556 21-798) (receptor)
binding [3]: binds
